These are yes or no findings as the source states them, for the method shown. Binding seen in cells or lysates may run through a third protein.
Molecular target: endogenous CXCR4 on lymphoid cancer cells (human (endogenous in Namalwa, Z-138, RPCI-WM1 and patient PBMCs)) (UniProt P61073)
Assay: FRET or BRET

By UniProt entry, the sequences of proteins in these tests, tags left out. Where a name states a change or a piece, a line headed by the entry shows the natural chain unless it says otherwise.
UniProt P05556: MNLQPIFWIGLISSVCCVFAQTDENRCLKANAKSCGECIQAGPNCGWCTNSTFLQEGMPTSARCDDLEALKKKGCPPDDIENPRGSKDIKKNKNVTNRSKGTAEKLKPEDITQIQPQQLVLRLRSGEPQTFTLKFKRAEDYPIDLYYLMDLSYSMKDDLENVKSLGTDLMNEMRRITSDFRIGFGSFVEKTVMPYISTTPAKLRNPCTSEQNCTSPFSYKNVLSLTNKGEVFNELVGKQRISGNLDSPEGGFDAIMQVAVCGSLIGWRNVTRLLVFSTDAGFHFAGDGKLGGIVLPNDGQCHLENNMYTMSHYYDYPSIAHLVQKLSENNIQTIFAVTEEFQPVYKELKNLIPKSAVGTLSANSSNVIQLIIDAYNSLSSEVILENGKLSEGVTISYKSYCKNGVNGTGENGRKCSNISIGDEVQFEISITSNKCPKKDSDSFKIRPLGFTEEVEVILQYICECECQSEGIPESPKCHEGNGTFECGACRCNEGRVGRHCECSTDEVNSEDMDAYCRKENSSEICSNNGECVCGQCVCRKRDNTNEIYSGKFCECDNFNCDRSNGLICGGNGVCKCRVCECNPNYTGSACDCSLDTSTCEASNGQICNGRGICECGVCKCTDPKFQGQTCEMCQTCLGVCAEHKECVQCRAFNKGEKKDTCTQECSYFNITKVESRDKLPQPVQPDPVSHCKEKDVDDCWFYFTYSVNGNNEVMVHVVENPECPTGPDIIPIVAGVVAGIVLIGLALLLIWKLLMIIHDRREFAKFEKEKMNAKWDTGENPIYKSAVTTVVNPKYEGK

With “integrin β1 (from UniProt P05556 21-798) (receptor)” the binding was “no binding”.

From article doi:10.1101/2024.12.06.627249
